The target in assay [1] is Flag-tagged Kog1 (S. cerevisiae) (UniProt P38873). In words: co-IP; Flag-tagged Kog1 or Avo3 immunoprecipitated from cleared spheroplast lysates of yeast grown in YEPD at 30°C. Anti-Flag M2 on Dynabeads protein G, 4°C, 2 h, in IP buffer (1x PBS, 2 mM MgCl2, 1% Tween-20, 10 mM β-mercaptoethanol, phosphatase and protease inhibitors). Co-precipitated HA-Tor1 or HA-Tor2 detected by anti-HA immunoblot. Wild-type, tor2(K12) and tor1Δ backgrounds. (Immunoblotting shows a protein as a band on a membrane.)

Amino acid sequences for entries named in this document (tags omitted).
UniProt P38873: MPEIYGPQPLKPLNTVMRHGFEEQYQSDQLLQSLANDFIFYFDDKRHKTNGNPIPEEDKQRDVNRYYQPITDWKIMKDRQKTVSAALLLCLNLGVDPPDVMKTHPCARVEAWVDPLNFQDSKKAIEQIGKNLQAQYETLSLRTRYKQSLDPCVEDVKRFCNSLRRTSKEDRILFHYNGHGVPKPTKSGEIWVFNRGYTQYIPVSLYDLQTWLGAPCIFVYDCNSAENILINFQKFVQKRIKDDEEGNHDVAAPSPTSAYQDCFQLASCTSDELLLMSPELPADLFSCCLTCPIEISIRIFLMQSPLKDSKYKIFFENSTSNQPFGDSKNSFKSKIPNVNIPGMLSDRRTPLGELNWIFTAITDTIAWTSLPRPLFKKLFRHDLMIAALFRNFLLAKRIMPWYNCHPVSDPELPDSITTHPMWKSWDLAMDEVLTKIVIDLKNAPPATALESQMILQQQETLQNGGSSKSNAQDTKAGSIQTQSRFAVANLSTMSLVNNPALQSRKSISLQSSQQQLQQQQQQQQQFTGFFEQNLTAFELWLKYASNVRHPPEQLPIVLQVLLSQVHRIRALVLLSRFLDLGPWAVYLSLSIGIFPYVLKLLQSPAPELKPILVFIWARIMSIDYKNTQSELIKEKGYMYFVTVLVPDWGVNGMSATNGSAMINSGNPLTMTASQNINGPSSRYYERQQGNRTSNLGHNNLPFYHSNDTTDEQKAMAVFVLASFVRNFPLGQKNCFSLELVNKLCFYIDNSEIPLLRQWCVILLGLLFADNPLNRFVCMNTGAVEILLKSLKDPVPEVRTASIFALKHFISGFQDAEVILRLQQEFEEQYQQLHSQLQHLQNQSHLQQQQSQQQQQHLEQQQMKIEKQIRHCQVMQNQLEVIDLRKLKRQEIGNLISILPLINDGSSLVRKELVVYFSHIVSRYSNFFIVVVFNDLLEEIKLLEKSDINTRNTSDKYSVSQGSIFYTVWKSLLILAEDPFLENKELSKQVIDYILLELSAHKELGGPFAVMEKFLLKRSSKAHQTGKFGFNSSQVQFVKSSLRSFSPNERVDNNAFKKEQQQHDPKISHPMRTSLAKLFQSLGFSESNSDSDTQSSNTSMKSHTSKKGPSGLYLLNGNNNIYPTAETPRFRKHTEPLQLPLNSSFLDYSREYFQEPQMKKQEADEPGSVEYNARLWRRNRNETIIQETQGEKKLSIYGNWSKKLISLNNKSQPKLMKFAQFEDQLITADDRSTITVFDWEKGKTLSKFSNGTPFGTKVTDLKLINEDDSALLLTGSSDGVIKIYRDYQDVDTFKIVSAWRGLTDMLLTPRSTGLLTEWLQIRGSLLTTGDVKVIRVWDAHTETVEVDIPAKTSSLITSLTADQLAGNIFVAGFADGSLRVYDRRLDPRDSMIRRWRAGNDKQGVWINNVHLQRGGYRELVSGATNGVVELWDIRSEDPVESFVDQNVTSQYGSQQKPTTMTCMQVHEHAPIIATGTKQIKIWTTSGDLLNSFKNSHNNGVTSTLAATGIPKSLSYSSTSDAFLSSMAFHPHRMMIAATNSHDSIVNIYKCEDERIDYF
UniProt P35169: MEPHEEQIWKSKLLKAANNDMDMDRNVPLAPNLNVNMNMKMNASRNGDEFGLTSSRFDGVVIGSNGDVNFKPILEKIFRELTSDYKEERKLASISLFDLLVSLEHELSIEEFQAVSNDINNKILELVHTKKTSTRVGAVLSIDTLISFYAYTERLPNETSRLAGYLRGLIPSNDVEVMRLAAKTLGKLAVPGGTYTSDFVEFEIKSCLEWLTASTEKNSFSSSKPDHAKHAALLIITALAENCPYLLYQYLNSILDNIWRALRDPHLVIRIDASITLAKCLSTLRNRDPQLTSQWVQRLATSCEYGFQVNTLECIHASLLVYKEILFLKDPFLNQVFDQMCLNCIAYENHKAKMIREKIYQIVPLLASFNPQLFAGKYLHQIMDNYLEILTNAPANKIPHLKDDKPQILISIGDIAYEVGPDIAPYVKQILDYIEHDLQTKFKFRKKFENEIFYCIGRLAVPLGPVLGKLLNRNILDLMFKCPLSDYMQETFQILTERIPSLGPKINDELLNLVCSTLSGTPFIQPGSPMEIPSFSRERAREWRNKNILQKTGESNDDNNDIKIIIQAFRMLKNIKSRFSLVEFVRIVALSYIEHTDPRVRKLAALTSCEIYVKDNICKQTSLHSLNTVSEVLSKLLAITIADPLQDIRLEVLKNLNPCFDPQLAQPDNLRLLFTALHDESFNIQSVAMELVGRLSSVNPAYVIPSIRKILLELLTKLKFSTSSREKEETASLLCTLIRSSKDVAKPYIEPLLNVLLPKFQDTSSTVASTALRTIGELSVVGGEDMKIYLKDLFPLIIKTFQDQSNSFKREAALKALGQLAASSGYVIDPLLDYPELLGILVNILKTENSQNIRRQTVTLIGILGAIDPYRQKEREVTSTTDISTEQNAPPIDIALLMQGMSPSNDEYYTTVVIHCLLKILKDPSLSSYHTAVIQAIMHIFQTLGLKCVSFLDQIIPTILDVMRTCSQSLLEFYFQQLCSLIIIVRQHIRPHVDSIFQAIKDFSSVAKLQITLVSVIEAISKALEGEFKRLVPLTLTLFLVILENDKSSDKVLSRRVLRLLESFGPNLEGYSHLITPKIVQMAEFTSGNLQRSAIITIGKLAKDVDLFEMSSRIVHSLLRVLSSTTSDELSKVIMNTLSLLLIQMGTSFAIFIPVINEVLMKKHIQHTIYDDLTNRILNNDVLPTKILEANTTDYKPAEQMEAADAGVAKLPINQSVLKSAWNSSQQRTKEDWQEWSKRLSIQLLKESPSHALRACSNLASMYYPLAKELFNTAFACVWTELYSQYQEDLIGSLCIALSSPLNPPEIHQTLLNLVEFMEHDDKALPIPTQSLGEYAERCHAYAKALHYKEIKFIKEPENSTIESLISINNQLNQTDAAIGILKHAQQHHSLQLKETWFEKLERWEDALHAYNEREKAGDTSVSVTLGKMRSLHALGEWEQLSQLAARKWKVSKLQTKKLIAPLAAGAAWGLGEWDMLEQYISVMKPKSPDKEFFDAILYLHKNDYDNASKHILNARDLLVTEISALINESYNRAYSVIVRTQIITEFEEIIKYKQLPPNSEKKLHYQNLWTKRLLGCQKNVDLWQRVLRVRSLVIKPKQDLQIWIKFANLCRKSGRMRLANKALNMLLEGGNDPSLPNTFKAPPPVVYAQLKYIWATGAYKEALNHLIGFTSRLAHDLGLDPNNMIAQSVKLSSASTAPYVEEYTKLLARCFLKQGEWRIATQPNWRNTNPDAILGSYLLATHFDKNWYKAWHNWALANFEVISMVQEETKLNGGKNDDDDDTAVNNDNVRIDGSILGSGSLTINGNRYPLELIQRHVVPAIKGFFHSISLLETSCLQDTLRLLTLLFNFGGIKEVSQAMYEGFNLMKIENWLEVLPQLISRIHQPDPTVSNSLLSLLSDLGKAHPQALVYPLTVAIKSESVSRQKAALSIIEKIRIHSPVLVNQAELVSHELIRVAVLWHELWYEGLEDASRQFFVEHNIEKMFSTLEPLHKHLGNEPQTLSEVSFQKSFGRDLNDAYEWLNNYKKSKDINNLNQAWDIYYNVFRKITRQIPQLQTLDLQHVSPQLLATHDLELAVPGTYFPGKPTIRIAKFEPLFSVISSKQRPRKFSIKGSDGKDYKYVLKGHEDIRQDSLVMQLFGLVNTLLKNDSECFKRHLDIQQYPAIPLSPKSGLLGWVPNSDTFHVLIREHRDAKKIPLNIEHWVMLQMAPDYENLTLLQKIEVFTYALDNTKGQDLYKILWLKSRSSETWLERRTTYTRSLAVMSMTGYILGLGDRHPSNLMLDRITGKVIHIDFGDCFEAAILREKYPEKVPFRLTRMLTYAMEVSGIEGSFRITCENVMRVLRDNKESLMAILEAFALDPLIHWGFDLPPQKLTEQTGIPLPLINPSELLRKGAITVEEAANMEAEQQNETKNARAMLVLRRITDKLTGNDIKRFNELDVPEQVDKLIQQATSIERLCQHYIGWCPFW
UniProt P32600: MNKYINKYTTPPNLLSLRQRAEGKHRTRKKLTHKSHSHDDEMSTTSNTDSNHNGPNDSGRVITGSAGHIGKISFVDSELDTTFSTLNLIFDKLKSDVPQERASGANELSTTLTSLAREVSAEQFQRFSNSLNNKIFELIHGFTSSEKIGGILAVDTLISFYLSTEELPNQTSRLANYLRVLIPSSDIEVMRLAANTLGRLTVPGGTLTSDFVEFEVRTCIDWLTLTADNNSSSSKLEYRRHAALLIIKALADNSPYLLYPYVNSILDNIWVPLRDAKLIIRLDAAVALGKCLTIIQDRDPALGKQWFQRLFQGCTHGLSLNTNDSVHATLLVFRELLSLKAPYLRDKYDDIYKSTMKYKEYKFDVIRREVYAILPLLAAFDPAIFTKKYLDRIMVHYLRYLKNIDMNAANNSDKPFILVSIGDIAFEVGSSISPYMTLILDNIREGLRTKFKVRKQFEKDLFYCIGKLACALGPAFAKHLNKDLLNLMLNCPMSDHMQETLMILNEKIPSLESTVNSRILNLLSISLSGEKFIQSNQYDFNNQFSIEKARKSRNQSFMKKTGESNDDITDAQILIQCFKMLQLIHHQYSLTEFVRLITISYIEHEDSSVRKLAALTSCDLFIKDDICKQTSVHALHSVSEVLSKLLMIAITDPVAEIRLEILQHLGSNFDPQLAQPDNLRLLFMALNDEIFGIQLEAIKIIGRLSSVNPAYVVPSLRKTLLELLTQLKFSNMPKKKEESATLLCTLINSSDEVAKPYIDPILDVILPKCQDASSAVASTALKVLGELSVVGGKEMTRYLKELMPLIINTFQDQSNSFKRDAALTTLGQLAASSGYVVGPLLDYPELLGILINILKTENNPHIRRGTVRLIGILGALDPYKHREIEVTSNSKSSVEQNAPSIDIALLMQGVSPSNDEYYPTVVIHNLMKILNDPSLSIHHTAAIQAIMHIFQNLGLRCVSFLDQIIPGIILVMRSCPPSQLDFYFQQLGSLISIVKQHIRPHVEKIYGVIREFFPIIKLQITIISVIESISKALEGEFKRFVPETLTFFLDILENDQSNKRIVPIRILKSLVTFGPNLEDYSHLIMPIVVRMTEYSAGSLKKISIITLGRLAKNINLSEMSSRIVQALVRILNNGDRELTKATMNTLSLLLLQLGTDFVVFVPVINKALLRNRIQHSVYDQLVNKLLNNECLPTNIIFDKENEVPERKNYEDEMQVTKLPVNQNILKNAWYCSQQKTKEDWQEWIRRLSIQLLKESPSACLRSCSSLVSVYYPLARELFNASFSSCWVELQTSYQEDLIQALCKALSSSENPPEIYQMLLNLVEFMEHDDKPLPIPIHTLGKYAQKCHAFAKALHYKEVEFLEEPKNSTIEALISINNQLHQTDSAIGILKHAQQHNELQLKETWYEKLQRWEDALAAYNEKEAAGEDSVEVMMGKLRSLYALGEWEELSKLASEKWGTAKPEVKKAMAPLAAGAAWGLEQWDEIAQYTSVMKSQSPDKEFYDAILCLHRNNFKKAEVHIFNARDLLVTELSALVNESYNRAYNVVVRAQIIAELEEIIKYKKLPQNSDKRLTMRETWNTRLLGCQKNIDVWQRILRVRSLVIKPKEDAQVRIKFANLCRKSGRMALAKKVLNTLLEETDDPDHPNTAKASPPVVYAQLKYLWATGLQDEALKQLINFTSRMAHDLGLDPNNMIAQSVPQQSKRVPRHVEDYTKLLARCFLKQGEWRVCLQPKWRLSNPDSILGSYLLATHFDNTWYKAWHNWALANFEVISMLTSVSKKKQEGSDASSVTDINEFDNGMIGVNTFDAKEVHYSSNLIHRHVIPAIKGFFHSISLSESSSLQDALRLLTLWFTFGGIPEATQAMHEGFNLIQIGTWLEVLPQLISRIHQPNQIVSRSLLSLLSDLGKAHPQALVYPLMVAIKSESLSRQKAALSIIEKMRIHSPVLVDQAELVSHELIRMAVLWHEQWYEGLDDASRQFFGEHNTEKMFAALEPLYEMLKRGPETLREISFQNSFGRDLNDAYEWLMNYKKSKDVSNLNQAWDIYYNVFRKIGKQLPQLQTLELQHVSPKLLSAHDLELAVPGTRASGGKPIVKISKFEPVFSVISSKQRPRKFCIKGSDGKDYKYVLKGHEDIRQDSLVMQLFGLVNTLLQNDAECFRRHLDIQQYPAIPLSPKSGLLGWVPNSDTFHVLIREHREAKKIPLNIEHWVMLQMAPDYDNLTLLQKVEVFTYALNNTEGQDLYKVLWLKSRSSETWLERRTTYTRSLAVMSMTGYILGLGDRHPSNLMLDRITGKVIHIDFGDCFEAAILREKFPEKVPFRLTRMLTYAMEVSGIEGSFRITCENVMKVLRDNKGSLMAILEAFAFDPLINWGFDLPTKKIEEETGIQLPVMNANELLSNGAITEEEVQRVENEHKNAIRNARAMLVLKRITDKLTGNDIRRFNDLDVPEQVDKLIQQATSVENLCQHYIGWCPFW

In assay [2] the target is T1, Flag-tagged Avo3 (S. cerevisiae) (UniProt P40061).
T1 sequence: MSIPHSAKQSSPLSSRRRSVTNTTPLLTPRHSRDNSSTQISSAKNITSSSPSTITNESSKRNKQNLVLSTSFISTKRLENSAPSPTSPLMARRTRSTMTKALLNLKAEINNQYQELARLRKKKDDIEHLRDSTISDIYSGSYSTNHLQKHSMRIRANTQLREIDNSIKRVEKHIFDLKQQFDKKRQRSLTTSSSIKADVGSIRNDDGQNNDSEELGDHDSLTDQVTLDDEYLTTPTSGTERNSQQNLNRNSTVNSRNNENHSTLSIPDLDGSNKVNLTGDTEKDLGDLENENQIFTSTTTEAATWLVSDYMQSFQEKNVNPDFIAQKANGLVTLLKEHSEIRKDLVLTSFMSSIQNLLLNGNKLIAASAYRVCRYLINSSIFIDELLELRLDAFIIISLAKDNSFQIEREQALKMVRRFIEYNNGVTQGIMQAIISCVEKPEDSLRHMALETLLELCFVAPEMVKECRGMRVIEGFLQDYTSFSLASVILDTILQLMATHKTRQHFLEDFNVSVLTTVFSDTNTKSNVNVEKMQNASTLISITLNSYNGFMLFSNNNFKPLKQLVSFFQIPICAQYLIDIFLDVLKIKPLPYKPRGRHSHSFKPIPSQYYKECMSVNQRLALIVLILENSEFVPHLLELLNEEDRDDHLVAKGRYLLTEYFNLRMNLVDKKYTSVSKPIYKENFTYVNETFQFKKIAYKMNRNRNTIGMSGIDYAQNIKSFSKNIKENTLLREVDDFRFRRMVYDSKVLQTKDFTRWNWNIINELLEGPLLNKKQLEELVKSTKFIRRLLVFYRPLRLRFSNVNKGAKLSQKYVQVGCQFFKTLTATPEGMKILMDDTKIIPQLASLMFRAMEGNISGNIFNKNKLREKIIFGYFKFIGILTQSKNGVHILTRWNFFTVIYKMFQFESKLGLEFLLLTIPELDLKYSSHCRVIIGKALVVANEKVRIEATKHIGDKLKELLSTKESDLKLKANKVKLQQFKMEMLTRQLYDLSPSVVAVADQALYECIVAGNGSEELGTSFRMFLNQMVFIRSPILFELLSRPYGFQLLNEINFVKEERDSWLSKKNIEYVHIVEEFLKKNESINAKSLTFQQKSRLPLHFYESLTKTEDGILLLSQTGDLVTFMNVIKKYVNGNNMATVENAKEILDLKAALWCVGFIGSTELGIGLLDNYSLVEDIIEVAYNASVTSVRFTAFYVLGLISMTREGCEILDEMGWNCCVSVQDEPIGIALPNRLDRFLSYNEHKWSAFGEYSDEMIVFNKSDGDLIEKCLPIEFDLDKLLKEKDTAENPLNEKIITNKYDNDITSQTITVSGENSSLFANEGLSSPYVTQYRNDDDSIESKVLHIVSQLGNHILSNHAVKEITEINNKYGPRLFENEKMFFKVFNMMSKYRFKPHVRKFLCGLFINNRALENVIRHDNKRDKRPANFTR
The description is as above.

For two substances, binding results are on record in publication PMC10941655.

These are yes or no findings as the source states them, for the method shown. Binding seen in cells or lysates may run through a third protein. Some binding calls cover weakened binding; strength is not graded here. For part of these data: Where a sequence is shown, tags or fusion partners need not be part of it.

On to “HA-tagged Tor1 (from UniProt P35169 1-2470) (enzyme)”, for which, in assay [1], the binding entry is “binds”.
With “HA-tagged Tor2 (wild type) (from UniProt P32600 1-2474) (enzyme)”, the binding entry in assay [2] and in assay [1] was “binds” each time.
